Consider one compound from US6589325B1, “Phthalocyanine compounds, water-base ink compositions and colored products” (Nippon Kayaku Kabushiki Kaisha, priority 1999, dated 2003).

Each structure is given as a SMILES string.

A short description of the data set: color rendering property, visual observation under tungsten lamp vs standard light source. Also on record: key: ∘: a small deviation in hue; Δ: a medium deviation in hue; ×: a large deviation in hue.

For the compound `Nc1ccc2cc(S(=O)(=O)O)c(N=Nc3ccc(N=Nc4cc(C(=O)O)cc(C(=O)O)c4)c4ccccc34)c(O)c2c1` [Comparative Example 2], the “Color Rendering property” value (plain paper) was “Δ” and the “Color Rendering property” value (special paper A) is on record as “Δ”.
